Results are given in words; binding and its absence hold for the method and conditions named. In cells and extracts the contact can be indirect. Some results given as binding are weak or reduced against the parent protein; the word gives no strength. Where a sequence is shown, tags or fusion partners need not be part of it.
What was measured:
Experiment in all cases: co-IP; GFP-tagged bait pulled down with agarose GFP-traps (Chromotek) from at least 500 ug of worm nuclear extract (pooled nuclear-soluble and chromatin-bound fractions); Buffer D (20 mM HEPES pH 7.9, 150 mM KCl, 20% glycerol, 0.2 mM EDTA, 0.2% Triton X-100, protease inhibitor) for incubation and washes; endogenous PARG-1 detected by western blot; untagged wild-type worms as negative control
HTP-3::GFP (C. elegans) = biological target: T1, HTP-3::GFP (C. elegans) (UniProt O01820)
T1 sequence: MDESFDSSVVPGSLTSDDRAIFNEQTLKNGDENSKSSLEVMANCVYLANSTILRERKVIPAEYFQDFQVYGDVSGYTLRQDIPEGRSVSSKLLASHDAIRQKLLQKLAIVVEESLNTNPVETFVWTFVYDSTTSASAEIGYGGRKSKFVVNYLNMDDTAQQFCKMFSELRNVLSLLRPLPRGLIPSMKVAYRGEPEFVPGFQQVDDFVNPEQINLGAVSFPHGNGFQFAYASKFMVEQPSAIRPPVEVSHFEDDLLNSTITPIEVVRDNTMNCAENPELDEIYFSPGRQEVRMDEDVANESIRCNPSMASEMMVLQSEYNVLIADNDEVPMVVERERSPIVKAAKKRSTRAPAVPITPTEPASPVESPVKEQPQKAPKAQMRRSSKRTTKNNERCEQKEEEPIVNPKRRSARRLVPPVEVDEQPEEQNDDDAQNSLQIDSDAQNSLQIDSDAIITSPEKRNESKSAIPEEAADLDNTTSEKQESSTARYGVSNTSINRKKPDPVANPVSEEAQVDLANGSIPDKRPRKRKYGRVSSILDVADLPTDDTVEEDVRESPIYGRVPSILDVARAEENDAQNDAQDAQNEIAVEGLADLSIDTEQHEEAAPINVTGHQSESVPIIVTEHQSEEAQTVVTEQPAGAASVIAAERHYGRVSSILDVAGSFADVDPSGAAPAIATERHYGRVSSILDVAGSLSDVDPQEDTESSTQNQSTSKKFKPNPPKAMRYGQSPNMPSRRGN

REC-8::GFP (C. elegans) = biological target: T2, REC-8::GFP (C. elegans) (UniProt Q9XUB3)
T2 sequence: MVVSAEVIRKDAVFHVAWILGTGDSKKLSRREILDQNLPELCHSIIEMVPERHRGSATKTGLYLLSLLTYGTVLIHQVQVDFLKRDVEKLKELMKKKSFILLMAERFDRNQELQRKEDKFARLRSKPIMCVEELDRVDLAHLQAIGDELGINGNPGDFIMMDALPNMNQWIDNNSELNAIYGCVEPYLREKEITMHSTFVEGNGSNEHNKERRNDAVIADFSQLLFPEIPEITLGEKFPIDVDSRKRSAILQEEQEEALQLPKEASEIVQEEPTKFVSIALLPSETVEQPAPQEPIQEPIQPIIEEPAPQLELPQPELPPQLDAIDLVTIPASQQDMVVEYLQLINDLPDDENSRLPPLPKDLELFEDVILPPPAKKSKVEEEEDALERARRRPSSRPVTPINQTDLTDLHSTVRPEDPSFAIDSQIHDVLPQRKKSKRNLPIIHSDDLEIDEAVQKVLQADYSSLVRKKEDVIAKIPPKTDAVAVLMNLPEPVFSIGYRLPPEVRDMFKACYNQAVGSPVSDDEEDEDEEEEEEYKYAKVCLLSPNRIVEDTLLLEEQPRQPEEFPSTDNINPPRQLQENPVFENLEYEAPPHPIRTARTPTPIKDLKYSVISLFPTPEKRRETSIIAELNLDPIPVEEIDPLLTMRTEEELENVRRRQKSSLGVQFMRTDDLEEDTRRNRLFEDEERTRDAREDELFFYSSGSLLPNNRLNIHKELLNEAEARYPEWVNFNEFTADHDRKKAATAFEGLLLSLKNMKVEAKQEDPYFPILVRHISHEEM

GFP::SYP-3 (C. elegans) = biological target: T3, GFP::SYP-3 (C. elegans) (UniProt O62238)
T3 sequence: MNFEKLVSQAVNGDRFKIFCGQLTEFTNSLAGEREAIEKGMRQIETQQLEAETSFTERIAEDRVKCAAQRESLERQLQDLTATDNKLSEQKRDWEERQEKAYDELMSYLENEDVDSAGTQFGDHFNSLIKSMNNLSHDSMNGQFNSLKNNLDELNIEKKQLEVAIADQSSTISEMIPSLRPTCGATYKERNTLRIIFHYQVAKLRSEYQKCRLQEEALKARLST

MRE-11::GFP (C. elegans) = biological target: T4, MRE-11::GFP (C. elegans) (UniProt Q23255)
T4 sequence: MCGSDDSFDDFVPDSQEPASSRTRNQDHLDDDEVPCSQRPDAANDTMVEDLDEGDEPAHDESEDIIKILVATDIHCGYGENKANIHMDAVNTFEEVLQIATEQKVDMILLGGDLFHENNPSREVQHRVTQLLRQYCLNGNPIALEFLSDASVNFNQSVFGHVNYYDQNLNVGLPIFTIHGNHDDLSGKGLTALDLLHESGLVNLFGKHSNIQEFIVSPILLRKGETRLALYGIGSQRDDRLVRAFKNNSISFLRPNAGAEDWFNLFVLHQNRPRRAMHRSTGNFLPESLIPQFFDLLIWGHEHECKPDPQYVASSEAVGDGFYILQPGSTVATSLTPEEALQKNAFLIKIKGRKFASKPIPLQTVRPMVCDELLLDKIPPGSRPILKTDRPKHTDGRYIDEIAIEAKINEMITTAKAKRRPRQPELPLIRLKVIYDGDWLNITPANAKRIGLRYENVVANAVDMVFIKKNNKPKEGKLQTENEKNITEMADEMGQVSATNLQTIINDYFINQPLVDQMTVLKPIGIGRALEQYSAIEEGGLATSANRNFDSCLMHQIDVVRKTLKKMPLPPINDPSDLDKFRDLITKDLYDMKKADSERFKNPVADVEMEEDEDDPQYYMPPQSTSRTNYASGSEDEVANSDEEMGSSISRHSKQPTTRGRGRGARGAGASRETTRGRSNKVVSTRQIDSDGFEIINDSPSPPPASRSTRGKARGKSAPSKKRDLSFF

HTP-1::GFP (C. elegans) = biological target: T5, HTP-1::GFP (C. elegans) (UniProt Q20305)
T5 sequence: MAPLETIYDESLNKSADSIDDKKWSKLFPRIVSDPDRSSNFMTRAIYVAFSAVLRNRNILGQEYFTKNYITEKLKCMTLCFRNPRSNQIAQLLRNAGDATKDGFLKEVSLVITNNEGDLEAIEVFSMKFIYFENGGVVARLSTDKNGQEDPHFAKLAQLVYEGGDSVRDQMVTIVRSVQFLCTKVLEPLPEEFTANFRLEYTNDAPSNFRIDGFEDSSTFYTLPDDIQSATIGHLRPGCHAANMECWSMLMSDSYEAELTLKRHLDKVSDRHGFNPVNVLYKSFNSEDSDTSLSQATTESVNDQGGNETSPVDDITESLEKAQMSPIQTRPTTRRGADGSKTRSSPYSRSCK

Measured: binding

B1: PARG-1 (poly(ADP-ribose) glycohydrolase), endogenous (protein, UniProt Q867X0 1-781)
chain: MSKKFIELGDPVTQDEKDYEDYVGVGFAHQVPTMKRRKLTEHGNTTESKEDPEEPKSRDVFVSSQSSDESQEDSAENPEIAKEVSENCENLTETLKISNIESLDNVTERSEHTLDNHKSTEPMEEDVNNKSNIDVAINSDEDDELVLEENNKEMRDGEQVQQDLFADDQELIEYPGIMKDTTTQLDITDSEVETAQKMEMIEETEADSTFVGEDSKNQRQSGTTSDEVDADSQINLATKTVRTSSSSFLSTVSTCEAPAKGRARMYQKELEKHVIAFTEGNLTLQPDLNKVDPDRNYRYCTIPNFPASQGKLREDNRYGPKIVLPQRWREFDSRGRRRDSYFYFKRKLDGYLKCYKTTGYFMFVGLLHNMWEFDPDITYKLPALEMYYKEMSELVGREEVLEKFARVARIAKTAEDILPERIYRLVGDVESATLSHKQCAALVARMFFARPDSPFSFCRILSSDKSICVEKLKFLFTYFDKMSMDPPDGAVSFRLTKMDKDTFNEEWKDKKLRSLPEVEFFDEMLIEDTALCTQVDFANEHLGGGVLNHGSVQEEIRFLMCPEMMVGMLLCEKMKQLEAISIVGAYVFSSYTGYGHTLKWAELQPNHSRQNTNEFRDRFGRLRVETIAIDAILFKGSKLDCQTEQLNKANIIREMKKASIGFMSQGPKFTNIPIVTGWWGCGAFNGDKPLKFIIQVIAAGVADRPLHFCSFGEPELAAKCKKIIERMKQKDVTLGMLFSMINNTGLPHKHFEFYVFDRISTYLSSSEDVESSKSSPSVSRA
binds: all assays above

Source: article PMC7519143
